Data as given in patent US20070025986A1, “Modulation of HCN channels by second messengers” (priority 2003, published 2007).
Where two headings read alike, the source gives them in different places. At least one compound was matched to its structure with a doubt left.

Experiments:
HCN1 channel = assay: Two microelectrode voltage clamp (2MEV) of HCN1 and HCN1 mutants expressed in Xenopus oocytes; assay type: cell-based, mouse; conditions: forskolin 10 μM, 30 min, SQ-22536 300 μM, 3 hr
[1] = test system: native pacemaker channels (IH); conditions: cited from earlier work

| Structure (SMILES) | Effect on gating (HCN1 channel; HCN1-R538E) | Effect on V1/2 of activation (HCN1 channel; wild type HCN1) | Δ IMAX ([1]; ECM: Embryonic cardiomyocytes) [%] | Δ IMAX ([1]; LGN) | Δ V1/2 ([1]; LGN) | Δ V1/2 ([1]; PF: cardiac purkinje fibre) | Δ V1/2 ([1]; SA: sinoatrial node) |
| --- | --- | --- | --- | --- | --- | --- | --- |
| C=C[C@@]1(C)CC(=O)[C@]2(O)[C@@]3(C)[C@@H](O)CCC(C)(C)[C@@H]3[C@H](O)[C@H](OC(C)=O)[C@@]2(C)O1 [forskolin] | not altered | facilitated | – | – | – | – | – |
| CC(=O)OCC[N+](C)(C)C [Acetylcholine] | – | – | −41 | CA1; +43% LGN | CA1; +5 mV LGN | −8 mV SA, PF | −8 mV SA, PF |
